# Source: PubChem BioAssay AID624297 (National Center for Advancing Translational Sciences (NCATS), 2012)
# Hit rate of the full screen: of about 340,000 compounds, about 6,200 (1.8%) were called active. Inconclusive results, whose numbers are uncertain, are shown with a selection of clear calls. Calls come from the whole dose curve; as a rule, active = well fitted activation curve with a large enough effect; inconclusive = small, poorly fitted or top-dose-only effect; inactive = no such curve, though single readings can be large or run the other way. Where the call is inconclusive, the potency comes from a doubtful curve fit.
# Assay: A quantitative high throughput screen for small molecules that induce DNA re-replication in SW480 colon adenocarcinoma cells. For re-replication activation: % of control where 0% means no effect. Note: nearly all actives have a fitted effect of over 55% in size.
# Details: Hoechst DNA content imaging, 48 h; re-replication activation: at 46.1 µM (top of the series) unless noted
# Method in brief: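 SW480 cells exposed to compounds for 48 hr at 37 C, 5% CO2, then Hoechst-stained 40 min. Nuclear DNA content imaged by fluorescence scanning (405 nm excitation, 500-530 nm emission); re-replication scored as increased high-intensity nuclei.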
# Potency is the fitted concentration of half-maximal effect.
Structure (SMILES),re-replication activation,Potency
CCn1nc(C(=O)NCc2ccco2)c(Cl)c1Cl,inactive: -0.9%,
O=C(O)c1ccccc1Nc1cc(Cl)c2nonc2c1[N+](=O)[O-],inactive: 1.24%,
Cc1ccc(C(=O)NCc2ccco2)cc1S(=O)(=O)Nc1cccc(Cl)c1,,"inconclusive: 6.51 µM [activator, single point]"
CS(=O)(=O)c1nc(-c2ccccc2)cc(C(F)(F)F)n1,,"inconclusive: 2.82 µM [activator, partial curve, poor fit]"
COc1ccc(N2C(=S)N(C(=O)c3ccccc3)C(=Nc3ccccc3)C2=Nc2ccccc2)cc1,,"inconclusive: 16.4 µM [activator, partial curve, poor fit]"
C=CCOC(=O)C1=C(C)NC(C)=C(C(=O)OCC=C)C1c1cn(-c2ccccc2)nc1-c1ccco1,inconclusive: -401% [activator],"inconclusive: 23.1 µM [activator, single point]"
OCCN1CCN(CCCN2c3ccccc3C=Cc3ccccc32)CC1,,"inconclusive: 29.9 µM [activator, partial curve, poor fit]"
CCOc1ccccc1/C=N/n1c(C)nc2ccccc2c1=O,,"inconclusive: 1.3 µM [activator, full curve, poor fit]"
Cc1ccc(-n2[nH]c(C)c(/C=N/NC(=O)c3ccc(O)cc3O)c2=O)cc1,,active: 8.2 µM
CCCCn1c(=O)[nH]c(=O)c2c1nc(Cn1ncc(Cl)c(Cl)c1=O)n2CCC,,"inconclusive: 7.31 µM [activator, partial curve, poor fit]"
O=C(O)c1cc([N+](=O)[O-])cc2c1C=Cc1ccccc1O2,inactive: -0.335%,
CC(C)(C)c1nc2c(s1)CCc1onc(-c3ccc(Br)cc3)c1-2,,"inconclusive: 0.164 µM [activator, full curve]"
O=C(Nc1ccccc1)C(c1ccccc1)C1CCCC1 (stereo not drawn),,"inconclusive: 16.4 µM [activator, single point]"
O=C(CSc1cccc[n+]1[O-])c1cc(Cl)ccc1Cl,,"inconclusive: 2.59 µM [activator, partial curve, poor fit]"
CCOC(=O)c1cccc(NC(=O)C2(S(=O)(=O)c3ccc(Cl)cc3)CC2)c1,inactive: 3.94%,
CCOC(=O)c1cn(CC(=O)Nc2ccccc2C(=O)OCC)nn1,inactive: -0.586%,
Cc1cc(C(F)F)n2nc(C(=O)Nc3ccc(S(=O)(=O)N4CCCC4)cc3)nc2n1,inactive: -1.67%,
O=C(c1ccco1)N1CCN(Cc2nc(-c3cccs3)no2)CC1,,"inconclusive: 29.1 µM [activator, single point]"
CC1CC(C)CN(CC(O)COCc2ccccc2)C1 (stereo not drawn),inactive: 2.69%,
CCN(CC)CCNC(=O)c1cc2c(s1)-c1ccccc1SC2,,"inconclusive: 23.1 µM [activator, single point]"
CN(C)c1cccc2c1c(NC(=O)Nc1ccc(F)cc1F)nn2C,inactive: 9.66%,
O=C1c2cccc(OCC(=O)N3CCCc4ccccc43)c2CCN1Cc1ccc(F)cc1,inactive: 10.3%,
O=C(Cn1nc(-c2ccccc2)ccc1=O)NCCCN1CCOCC1,,"inconclusive: 2.59 µM [activator, partial curve]"
COc1cccc(NC(=O)CN(C)C(=O)CCc2nc3sc4c(c3c(=O)[nH]2)CCCC4)c1,,"inconclusive: 32.6 µM [activator, partial curve, poor fit]"

Structure (SMILES),re-replication activation,Potency
O=C(CNc1cc(S(=O)(=O)N2CCOCC2)ccc1NCC1CCCO1)Nc1ccc(C(F)(F)F)cc1 (stereo not drawn),,"inconclusive: 1.84 µM [activator, partial curve, poor fit]"
Cc1cc(C)c(C)c(OCCCCN2CCCCC2)c1,inactive: -5.69%,
CCC(CC)CN1CCC(CN2C(=S)NC[C@@H]2CC(C)C)CC1,inactive: -0.12%,
O=C(C=Cc1ccc2c(c1)OCO2)c1ccccc1,,"inconclusive: 29.1 µM [activator, single point]"
O=C(c1cnn2c(C(F)F)cc(-c3ccccc3)nc12)N1CCN(Cc2ccc3c(c2)OCO3)CC1,inactive: -4.82%,
Oc1ccc(-c2nccs2)cc1,,"inconclusive: 0.146 µM [activator, full curve, poor fit]"
COc1cc(CNCCc2c[nH]c3ccccc23)ccc1OCc1ccc(F)cc1,,"inconclusive: 29.1 µM [activator, single point]"
S=C(NCC1CCCO1)N1CCN(Cc2ccccc2)CC1 (stereo not drawn),inactive: -10.7%,
Cc1cc2oc(=O)cc(CN(C)Cc3ccccc3Cl)c2cc1C,inactive: 11.6%,
CC1CCN(S(=O)(=O)c2ccc3c(c2)c(=O)c(C(=O)N2CCOCC2)cn3C)CC1,inactive: -13.6%,
Cc1ccc(CNC(=O)C(=O)NCC2CCCN2S(=O)(=O)c2cc(C)ccc2C)cc1 (stereo not drawn),inconclusive: -596% [activator],
Nc1ccc(N(c2ccccc2)c2ccc(N)cc2)cc1,,"inconclusive: 29.1 µM [activator, single point]"
COc1cc(/C=C2/C(=O)N(C)C(=S)N2C)ccc1OCc1cccc(F)c1,,"inconclusive: 6.51 µM [activator, single point]"
COc1cccc(NC(=O)Nc2ccc(C(C)(C)C)cc2)c1,,"inconclusive: 6.51 µM [activator, partial curve, poor fit]"
COC(=O)c1cc2nc(-c3ccc(OC)cc3)cc(C(F)(F)F)n2n1,inactive: -2.12%,
C=CCc1cc(OC)ccc1OCCN(C)Cc1ccccc1,,"inconclusive: 3.55 µM [activator, partial curve, poor fit]"
O=C(Nc1ccccc1)c1cnc2n(c1=O)CCS2,inactive: 14.8%,
N#C/C(=C(/O)c1ccc(Br)s1)c1nc2ccccc2[nH]1,,active: 7.31 µM
COc1ccc(OC)c2[nH]c(C(=O)N/N=C/c3ccccc3O)cc12,,"inconclusive: 1.16 µM [activator, full curve, poor fit]"
BrC(/C=N/N1CCN(Cc2ccccc2)CC1)=C/c1ccccc1,,"inconclusive: 20.6 µM [activator, single point]"
Cc1cc(C(=O)NCC(c2ccco2)N(C)C)ccc1[N+](=O)[O-] (stereo not drawn),inactive: 2.95%,
COc1cc(C(=O)NCCC(=O)NC2CCCc3ccccc32)cc(OC)c1OC (stereo not drawn),inactive: 1.22%,
C[C@]12C=CC(=O)C=C1CC[C@H]1[C@@H]3C[C@@H](O)[C@](O)(C(=O)CO)[C@@]3(C)C[C@H](O)[C@@]12F,,inactive
COc1ccc(C(=O)Nc2ccc(O)c3ccccc23)cc1,,"inconclusive: 23.1 µM [activator, single point]"

Structure (SMILES),re-replication activation,Potency
Cc1cccc(/C=C2/Sc3ccc(C(=O)N4CCOCC4)cc3NC2=O)c1,inactive: 19.8%,
O=C1C=CC(=O)N1CCCCCCN1C(=O)C=CC1=O,,active: 11.6 µM
CON(C)C(=O)/C=C/c1ccc([B-](F)(F)F)cc1,,"inconclusive: 0.366 µM [activator, partial curve, poor fit]"
CC1CN(C2=Nc3cccc4cccc2c34)CC(C)O1 (stereo not drawn),,"inconclusive: 16.4 µM [activator, partial curve, poor fit]"
Cc1onc(-c2ccccc2)c1C(=O)OCc1nnc(-c2ccccc2)o1,,"inconclusive: 1.16 µM [activator, full curve, poor fit]"
CC(=O)NC(CC(=O)NNC(=O)c1cccs1)c1ccccc1 (stereo not drawn),inactive: -28.5%,
Cc1ccc(-n2nc(C)c3c(C)c(CCC(=O)O)c(C)nc32)cc1C,,"inconclusive: 3.26 µM [activator, single point]"
COc1ccccc1/C=C/C=C(\C#N)C(=O)NC(C)c1ccccc1 (stereo not drawn),,"inconclusive: 18.4 µM [activator, partial curve, poor fit]"
Cc1csc(N(C(=O)c2ccccc2F)c2ccccc2)n1,,"inconclusive: 29.1 µM [activator, single point]"
Cc1c(C(=O)c2no[n+]([O-])c2C(=O)c2cnn(C)c2C)cnn1C,,"inconclusive: 5.8 µM [activator, single point]"
CCOc1ccc(N2C(=O)S/C(=C\c3ccc(O)c(OCC)c3)C2=O)cc1,,"inconclusive: 29.1 µM [activator, single point]"
CCCn1c(CCc2ccccc2)n[nH]c1=S,inactive: 0.449%,
CN(C)c1ccc(/C=N\NC(=S)SCN2C(=O)C3CCC(C)(C2=O)C3(C)C)cc1 (stereo not drawn),,"inconclusive: 1.16 µM [activator, single point]"
CC1CCCN(C(=O)COC(=O)Cc2c[nH]c3ccccc23)C1 (stereo not drawn),,"inconclusive: 29.1 µM [activator, single point]"
C=CCN1CCN(C(CCC)c2nnnn2Cc2ccco2)CC1 (stereo not drawn),inactive: -14.9%,
Cc1ccc(C(=O)N2CCC3(CC2)Oc2ccc(F)cc2C(=O)C32CC(c3cccnc3)=NO2)s1 (stereo not drawn),,"inconclusive: 4.61 µM [activator, partial curve, poor fit]"
CC(C)c1ccc(NC(=O)c2snc3ccc(Cl)cc23)cc1,inconclusive: 99.6% [activator],
CN(Cc1ccccc1)S(=O)(=O)c1ccc(NC(=S)NC(=O)C2CCCC2)cc1,,active: 3.26 µM
CCCN1C(=O)/C(=C/c2ccc(OCC(=O)OCC)cc2)NC1=S,,"inconclusive: 18.4 µM [activator, single point]"
C=CCNS(=O)(=O)c1ccc(C(=O)OCc2cc(=O)oc3cc(OC)ccc23)cc1,,"inconclusive: 29.1 µM [activator, single point]"
Nc1cc(=O)[nH]c(SCC(=O)N2CCN(S(=O)(=O)c3ccc4ccccc4c3)CC2)n1,inactive: 1.78%,
CCNCCOC(c1ccccc1)c1ccccc1,,"inconclusive: 18.4 µM [activator, single point]"
FC(F)Oc1ccc(NC(=S)NC2CCSc3ccccc32)cc1 (stereo not drawn),inactive: 8.33%,
Cc1ccccc1N1C(=O)C(Oc2ccc(Cl)cc2)C1CNCC1CCCO1 (stereo not drawn),,"inconclusive: 18.4 µM [activator, single point]"

# As entered above.
# re-replication activation, `Nc1cc(=O)[nH]c(SCC(=O)N2CCN(S(=O)(=O)c3ccc4ccccc4c3)CC2)n1` is entered as inactive: 1.78%
# re-replication activation, `CC(C)c1ccc(NC(=O)c2snc3ccc(Cl)cc23)cc1` is entered as inconclusive: 99.6% [activator]
# re-replication activation, `FC(F)Oc1ccc(NC(=S)NC2CCSc3ccccc32)cc1` (stereo not drawn) is entered as inactive: 8.33%
# Potency, `CN(Cc1ccccc1)S(=O)(=O)c1ccc(NC(=S)NC(=O)C2CCCC2)cc1` is entered as active: 3.26 µM
